Compound in the experiment: Nc1nc2c(ncn2[C@@H]2O[C@H](COP(=O)(O)OP(=O)(O)OP(=O)(O)O)[C@@H](O)[C@H]2O)c(=O)[nH]1 [guanosine triphosphate]
Briefly: NP40-soluble protein abundance relative to vehicle (solubility fold change) (ratio); higher = more soluble protein in presence of GTP. In a few lines: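 Each value is a fold change relative to the detergent-processed vehicle, calculated per replicate from vsn-normalised intensities. Jurkat crude lysate received eight concentrations (0.1 to 10 mM) for 10 min at room temperature and 3 min at 37 °C, then was solubilised in 0.8% NP40 with benzonase (60 min, 4 °C). The ultracentrifuged supernatant was TMT-labelled and run by LC-MS/MS in three independent experiments.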

Sequences of proteins named here, by UniProt entry; tags and fusion partners are left off. A change or cut given only in a name is not applied to a line headed by its entry.
UniProt Q9Y6K5: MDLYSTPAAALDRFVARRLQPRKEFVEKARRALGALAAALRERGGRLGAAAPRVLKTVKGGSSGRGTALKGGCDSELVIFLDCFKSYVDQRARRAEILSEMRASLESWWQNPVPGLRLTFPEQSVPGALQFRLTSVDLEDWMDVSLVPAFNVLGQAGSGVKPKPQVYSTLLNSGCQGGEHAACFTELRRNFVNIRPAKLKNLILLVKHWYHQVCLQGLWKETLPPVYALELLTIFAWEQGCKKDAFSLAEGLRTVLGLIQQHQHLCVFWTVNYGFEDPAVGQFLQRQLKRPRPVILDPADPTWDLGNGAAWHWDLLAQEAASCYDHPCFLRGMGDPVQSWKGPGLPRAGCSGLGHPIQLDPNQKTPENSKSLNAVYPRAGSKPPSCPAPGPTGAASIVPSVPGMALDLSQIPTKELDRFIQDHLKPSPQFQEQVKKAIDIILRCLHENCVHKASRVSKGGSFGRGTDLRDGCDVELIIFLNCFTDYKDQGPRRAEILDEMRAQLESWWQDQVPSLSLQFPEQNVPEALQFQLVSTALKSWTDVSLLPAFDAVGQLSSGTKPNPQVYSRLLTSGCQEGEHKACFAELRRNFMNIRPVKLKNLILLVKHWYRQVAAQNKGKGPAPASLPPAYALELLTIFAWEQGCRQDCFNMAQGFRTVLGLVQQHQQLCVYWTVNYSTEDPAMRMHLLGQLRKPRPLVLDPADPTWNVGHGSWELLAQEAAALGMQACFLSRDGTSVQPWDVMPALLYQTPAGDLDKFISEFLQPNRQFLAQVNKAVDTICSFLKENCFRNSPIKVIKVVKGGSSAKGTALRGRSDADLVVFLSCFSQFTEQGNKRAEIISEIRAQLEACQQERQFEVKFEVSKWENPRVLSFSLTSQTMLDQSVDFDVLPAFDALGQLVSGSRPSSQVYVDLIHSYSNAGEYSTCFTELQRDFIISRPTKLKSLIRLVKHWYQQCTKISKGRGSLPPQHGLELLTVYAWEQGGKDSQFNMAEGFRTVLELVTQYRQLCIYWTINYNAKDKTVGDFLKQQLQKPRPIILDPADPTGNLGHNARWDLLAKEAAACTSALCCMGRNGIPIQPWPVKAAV
UniProt Q9Y570: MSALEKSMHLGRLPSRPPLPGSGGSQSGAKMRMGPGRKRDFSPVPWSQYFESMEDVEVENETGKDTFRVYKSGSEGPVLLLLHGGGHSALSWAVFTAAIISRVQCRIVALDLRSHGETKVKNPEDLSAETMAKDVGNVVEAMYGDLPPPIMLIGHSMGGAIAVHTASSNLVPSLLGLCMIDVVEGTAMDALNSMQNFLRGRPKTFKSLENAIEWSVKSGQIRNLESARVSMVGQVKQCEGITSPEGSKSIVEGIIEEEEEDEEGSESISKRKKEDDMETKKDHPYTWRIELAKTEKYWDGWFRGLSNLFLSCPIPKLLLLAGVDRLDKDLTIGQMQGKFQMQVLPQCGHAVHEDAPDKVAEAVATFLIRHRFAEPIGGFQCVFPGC
UniProt Q9Y6Y8: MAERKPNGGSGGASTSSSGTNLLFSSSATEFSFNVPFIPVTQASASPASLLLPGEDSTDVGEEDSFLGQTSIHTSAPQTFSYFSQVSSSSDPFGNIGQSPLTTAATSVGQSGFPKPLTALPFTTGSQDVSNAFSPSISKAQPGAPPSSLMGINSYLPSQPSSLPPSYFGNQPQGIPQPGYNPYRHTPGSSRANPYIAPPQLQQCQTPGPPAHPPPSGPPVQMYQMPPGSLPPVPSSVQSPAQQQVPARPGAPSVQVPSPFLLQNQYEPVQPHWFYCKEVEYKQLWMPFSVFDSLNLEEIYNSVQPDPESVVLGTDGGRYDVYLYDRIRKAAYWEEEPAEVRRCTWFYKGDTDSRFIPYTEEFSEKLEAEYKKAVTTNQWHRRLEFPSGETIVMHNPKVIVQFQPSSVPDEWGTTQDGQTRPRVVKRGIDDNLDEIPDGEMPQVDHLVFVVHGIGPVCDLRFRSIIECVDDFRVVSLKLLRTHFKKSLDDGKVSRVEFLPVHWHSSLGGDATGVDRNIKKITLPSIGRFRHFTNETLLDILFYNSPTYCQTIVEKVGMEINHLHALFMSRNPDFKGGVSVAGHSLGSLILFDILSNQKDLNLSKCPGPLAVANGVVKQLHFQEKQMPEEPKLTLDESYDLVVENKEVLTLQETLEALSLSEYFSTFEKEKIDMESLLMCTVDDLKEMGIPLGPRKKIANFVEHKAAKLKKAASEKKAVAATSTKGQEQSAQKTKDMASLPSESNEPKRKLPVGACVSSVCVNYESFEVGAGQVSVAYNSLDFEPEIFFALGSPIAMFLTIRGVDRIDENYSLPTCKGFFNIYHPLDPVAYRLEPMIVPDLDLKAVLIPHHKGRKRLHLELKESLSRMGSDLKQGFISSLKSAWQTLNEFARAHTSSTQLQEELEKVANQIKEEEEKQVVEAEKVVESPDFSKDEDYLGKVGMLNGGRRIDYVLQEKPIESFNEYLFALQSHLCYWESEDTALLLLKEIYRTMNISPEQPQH
UniProt Q9Y6D5: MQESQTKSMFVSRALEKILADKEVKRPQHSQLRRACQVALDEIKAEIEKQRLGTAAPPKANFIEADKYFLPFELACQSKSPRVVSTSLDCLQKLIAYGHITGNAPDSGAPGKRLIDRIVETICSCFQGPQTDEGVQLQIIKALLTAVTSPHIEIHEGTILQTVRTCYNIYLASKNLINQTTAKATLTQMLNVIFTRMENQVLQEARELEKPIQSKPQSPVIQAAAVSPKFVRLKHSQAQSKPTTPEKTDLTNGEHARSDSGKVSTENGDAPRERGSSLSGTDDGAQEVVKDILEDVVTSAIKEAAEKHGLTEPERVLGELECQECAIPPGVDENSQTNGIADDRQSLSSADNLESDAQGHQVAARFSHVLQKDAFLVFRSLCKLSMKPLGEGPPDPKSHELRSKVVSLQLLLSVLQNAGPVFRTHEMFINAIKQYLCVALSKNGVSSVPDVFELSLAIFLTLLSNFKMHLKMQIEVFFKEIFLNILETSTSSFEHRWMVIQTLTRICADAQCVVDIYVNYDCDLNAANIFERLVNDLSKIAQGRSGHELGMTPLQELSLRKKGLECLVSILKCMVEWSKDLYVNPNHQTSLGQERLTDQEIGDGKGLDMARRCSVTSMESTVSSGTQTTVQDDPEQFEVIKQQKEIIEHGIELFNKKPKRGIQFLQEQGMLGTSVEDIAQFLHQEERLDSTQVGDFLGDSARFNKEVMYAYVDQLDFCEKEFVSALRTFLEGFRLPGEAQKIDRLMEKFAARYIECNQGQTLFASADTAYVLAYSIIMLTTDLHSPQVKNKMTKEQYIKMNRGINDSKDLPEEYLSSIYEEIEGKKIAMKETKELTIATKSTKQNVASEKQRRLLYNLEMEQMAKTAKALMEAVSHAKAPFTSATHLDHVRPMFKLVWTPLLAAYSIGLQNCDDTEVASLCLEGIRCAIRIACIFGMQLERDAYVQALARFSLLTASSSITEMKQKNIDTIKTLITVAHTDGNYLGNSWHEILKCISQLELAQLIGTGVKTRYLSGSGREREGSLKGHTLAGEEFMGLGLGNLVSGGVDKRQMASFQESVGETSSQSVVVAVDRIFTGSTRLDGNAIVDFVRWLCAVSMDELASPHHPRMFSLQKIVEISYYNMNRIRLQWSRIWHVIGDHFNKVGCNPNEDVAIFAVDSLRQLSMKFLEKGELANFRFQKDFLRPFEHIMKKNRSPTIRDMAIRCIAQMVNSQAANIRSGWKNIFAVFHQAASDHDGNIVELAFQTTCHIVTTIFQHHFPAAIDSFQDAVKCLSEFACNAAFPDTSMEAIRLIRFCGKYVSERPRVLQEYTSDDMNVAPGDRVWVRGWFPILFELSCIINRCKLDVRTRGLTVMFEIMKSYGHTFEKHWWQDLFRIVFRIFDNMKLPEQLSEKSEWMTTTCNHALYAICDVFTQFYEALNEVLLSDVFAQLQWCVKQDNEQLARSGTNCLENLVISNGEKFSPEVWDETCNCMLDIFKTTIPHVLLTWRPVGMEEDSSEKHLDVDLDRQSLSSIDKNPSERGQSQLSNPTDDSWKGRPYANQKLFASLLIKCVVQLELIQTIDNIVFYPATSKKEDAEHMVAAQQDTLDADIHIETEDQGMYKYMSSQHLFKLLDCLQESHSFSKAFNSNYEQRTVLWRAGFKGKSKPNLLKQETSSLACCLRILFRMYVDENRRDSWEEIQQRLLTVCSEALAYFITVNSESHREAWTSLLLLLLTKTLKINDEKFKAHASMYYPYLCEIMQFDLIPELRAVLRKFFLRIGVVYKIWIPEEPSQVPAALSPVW
UniProt Q9Y2S2: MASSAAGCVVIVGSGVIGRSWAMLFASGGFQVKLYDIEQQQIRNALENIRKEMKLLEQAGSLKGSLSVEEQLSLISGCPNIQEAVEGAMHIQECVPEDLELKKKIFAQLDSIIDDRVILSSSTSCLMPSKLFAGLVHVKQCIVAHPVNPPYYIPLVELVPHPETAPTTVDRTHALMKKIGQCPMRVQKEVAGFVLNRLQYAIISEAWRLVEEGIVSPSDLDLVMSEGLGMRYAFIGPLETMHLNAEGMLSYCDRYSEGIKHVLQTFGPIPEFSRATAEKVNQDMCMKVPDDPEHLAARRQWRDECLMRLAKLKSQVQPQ
UniProt Q9Y2X9: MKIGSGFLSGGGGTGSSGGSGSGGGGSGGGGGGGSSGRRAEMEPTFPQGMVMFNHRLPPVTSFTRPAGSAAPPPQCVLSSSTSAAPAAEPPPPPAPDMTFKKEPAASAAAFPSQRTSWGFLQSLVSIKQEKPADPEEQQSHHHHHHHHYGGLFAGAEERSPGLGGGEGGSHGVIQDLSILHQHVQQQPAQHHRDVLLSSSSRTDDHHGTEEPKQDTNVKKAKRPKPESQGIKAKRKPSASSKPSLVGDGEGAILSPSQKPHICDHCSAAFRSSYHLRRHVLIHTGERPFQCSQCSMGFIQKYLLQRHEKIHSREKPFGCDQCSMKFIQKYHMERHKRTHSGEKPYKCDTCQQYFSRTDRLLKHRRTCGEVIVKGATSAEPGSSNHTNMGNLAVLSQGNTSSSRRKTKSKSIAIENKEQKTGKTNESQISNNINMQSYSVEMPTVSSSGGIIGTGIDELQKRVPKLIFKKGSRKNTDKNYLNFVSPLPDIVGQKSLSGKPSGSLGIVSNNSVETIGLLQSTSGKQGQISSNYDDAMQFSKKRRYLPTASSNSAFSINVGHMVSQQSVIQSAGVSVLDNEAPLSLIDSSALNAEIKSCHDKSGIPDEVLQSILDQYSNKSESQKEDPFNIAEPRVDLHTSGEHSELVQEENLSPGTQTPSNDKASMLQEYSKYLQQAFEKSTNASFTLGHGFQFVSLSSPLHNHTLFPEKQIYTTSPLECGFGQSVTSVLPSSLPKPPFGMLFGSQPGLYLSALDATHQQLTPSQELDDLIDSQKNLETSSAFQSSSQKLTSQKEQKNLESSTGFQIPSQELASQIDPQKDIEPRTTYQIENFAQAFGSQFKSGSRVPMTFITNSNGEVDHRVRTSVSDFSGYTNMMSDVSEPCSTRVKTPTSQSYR
UniProt Q9Y4W6: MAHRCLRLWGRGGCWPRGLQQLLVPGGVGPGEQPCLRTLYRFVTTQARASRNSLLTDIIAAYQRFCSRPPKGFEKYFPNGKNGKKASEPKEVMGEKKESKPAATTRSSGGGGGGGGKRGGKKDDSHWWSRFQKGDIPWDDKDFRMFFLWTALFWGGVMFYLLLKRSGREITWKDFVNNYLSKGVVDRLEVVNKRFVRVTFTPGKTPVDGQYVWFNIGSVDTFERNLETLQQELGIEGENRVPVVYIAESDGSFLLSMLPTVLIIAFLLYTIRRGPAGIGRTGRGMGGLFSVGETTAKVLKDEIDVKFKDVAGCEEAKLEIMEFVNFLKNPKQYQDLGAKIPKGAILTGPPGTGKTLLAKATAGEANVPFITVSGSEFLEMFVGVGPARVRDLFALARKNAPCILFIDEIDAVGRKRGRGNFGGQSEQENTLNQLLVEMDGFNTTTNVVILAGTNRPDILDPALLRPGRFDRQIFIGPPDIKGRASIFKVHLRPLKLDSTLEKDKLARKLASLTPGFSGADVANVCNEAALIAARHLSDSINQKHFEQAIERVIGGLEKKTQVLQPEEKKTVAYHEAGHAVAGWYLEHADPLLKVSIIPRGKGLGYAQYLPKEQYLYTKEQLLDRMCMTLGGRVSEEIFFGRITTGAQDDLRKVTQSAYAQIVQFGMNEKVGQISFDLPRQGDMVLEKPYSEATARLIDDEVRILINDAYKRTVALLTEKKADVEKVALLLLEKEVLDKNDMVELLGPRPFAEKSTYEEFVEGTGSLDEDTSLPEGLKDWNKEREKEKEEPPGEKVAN
UniProt Q9UNQ2: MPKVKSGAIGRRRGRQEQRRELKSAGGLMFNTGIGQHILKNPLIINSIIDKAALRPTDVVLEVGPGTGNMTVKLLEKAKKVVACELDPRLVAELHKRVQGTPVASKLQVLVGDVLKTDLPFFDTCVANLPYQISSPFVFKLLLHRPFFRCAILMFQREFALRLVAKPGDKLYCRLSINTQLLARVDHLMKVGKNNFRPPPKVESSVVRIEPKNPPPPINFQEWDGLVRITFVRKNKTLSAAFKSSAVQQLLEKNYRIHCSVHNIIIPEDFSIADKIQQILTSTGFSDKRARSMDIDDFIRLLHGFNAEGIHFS

± gives the standard deviation of the averaged measurements. Some of the results follow.

Regarding OAS3 (UniProt Q9Y6K5), the NP40-soluble protein abundance by setting is: (concentration: 0.1mM) 1.08 ± 0.08; (concentration: 0.5mM) 1.08 ± 0.056; (concentration: 1mM) 1 ± 0.035; (concentration: 2mM) 1 ± 0.061; (concentration: 4mM) 0.962 ± 0.085; (concentration: 6mM) 0.975 ± 0.053. Besides, the NP40-soluble protein abundance is, setting by setting: (concentration: 8mM) 0.996 ± 0.074; (concentration: 10mM) 0.933 ± 0.1.

As to UniProt Q9Y570 and related entries, the NP40-soluble protein abundance (concentration: 0.1mM) was determined as 0.968 ± 0.046; the NP40-soluble protein abundance (concentration: 0.5mM) came out at 0.973 ± 0.072; the NP40-soluble protein abundance (concentration: 1mM) came out at 0.936 ± 0.063; the NP40-soluble protein abundance (concentration: 2mM) was found to be 0.922 ± 0.056; the NP40-soluble protein abundance (concentration: 4mM) came to 0.914 ± 0.075; the NP40-soluble protein abundance (concentration: 6mM) was 0.901 ± 0.064. The NP40-soluble protein abundance by setting is: (concentration: 8mM) 0.895 ± 0.074; (concentration: 10mM) 0.886 ± 0.091.

As for SEC23IP (UniProt Q9Y6Y8), the NP40-soluble protein abundance turned out to be 0.939 ± 0.057 (concentration: 0.1mM); 0.967 ± 0.053 (concentration: 0.5mM); 0.944 ± 0.049 (concentration: 1mM); 0.921 ± 0.051 (concentration: 2mM); 0.915 ± 0.05 (concentration: 4mM); 0.917 ± 0.04 (concentration: 6mM). For the same target, the NP40-soluble protein abundance is 0.913 ± 0.051 (concentration: 8mM) and 0.908 ± 0.05 (concentration: 10mM).

As to ARFGEF2 (UniProt Q9Y6D5), the NP40-soluble protein abundance is, setting by setting: (concentration: 0.1mM) 1.02 ± 0.015; (concentration: 0.5mM) 1.04 ± 0.042; (concentration: 1mM) 1.06 ± 0.025; (concentration: 2mM) 1.09 ± 0.037; (concentration: 4mM) 1.06 ± 0.061; (concentration: 6mM) 1.06 ± 0.07. The NP40-soluble protein abundance runs as follows: (concentration: 8mM) 1.08 ± 0.091; (concentration: 10mM) 1.06 ± 0.059.

For UniProt Q9Y2S2 and related entries, the NP40-soluble protein abundance (concentration: 0.1mM) was 1.09 ± 0.12; the NP40-soluble protein abundance (concentration: 0.5mM) came to 0.991 ± 0.11; the NP40-soluble protein abundance (concentration: 1mM) is 0.974 ± 0.12; the NP40-soluble protein abundance (concentration: 2mM) was determined as 0.971 ± 0.11; the NP40-soluble protein abundance (concentration: 4mM) was 0.948 ± 0.12; the NP40-soluble protein abundance (concentration: 6mM) was found to be 0.922 ± 0.13. Besides, the NP40-soluble protein abundance was 0.946 ± 0.15 (concentration: 8mM) and 0.912 ± 0.18 (concentration: 10mM).

On to UniProt Q9Y2X9 and related entries, for which the NP40-soluble protein abundance stood at 0.951 ± 0.12 (concentration: 0.1mM); 0.933 ± 0.056 (concentration: 0.5mM); 1.03 ± 0.071 (concentration: 1mM); 1.05 ± 0.12 (concentration: 2mM); 1.08 ± 0.088 (concentration: 4mM); 1.02 ± 0.1 (concentration: 6mM). Moreover, the NP40-soluble protein abundance worked out at 1.15 ± 0.13 (concentration: 8mM) and 1.08 ± 0.1 (concentration: 10mM).

For the target WDR3 (UniProt Q9UNX4), the NP40-soluble protein abundance (concentration: 0.1mM) amounted to 1.12 ± 0.08; the NP40-soluble protein abundance (concentration: 0.5mM) turned out to be 1.15 ± 0.098; the NP40-soluble protein abundance (concentration: 1mM) came out at 1.13 ± 0.061; the NP40-soluble protein abundance (concentration: 2mM) was found to be 1.42 ± 0.13; the NP40-soluble protein abundance (concentration: 4mM) came out at 1.81 ± 0.16; the NP40-soluble protein abundance (concentration: 6mM) stood at 1.98 ± 0.2. The NP40-soluble protein abundance is 2.04 ± 0.12 (concentration: 8mM) and 1.974 ± 0.012 (concentration: 10mM).

As for UniProt Q9Y2A7 and related entries, the NP40-soluble protein abundance worked out at 0.9505 ± 0.0043 (concentration: 0.1mM); 1.002 ± 0.0081 (concentration: 0.5mM); 0.972 ± 0.055 (concentration: 1mM); 0.982 ± 0.015 (concentration: 2mM); 0.991 ± 0.034 (concentration: 4mM); 0.9641 ± 0.0054 (concentration: 6mM). In addition, the NP40-soluble protein abundance was 1.02 ± 0.026 (concentration: 8mM) and 0.973 ± 0.011 (concentration: 10mM).

Turning to KMT2B (UniProt Q9UMN6), the NP40-soluble protein abundance by setting is: (concentration: 0.1mM) 0.989 ± 0.064; (concentration: 0.5mM) 1.07 ± 0.042; (concentration: 1mM) 1.08 ± 0.059; (concentration: 2mM) 1.1 ± 0.021; (concentration: 4mM) 1.06 ± 0.023; (concentration: 6mM) 1.09 ± 0.025. In addition, the NP40-soluble protein abundance runs as follows: (concentration: 8mM) 1.11 ± 0.11; (concentration: 10mM) 1.08 ± 0.11.

In the case of AFG3L2 (UniProt Q9Y4W6), the NP40-soluble protein abundance reads like this: (concentration: 0.1mM) 0.998 ± 0.016; (concentration: 0.5mM) 0.996 ± 0.016; (concentration: 1mM) 0.946 ± 0.024; (concentration: 2mM) 0.969 ± 0.022; (concentration: 4mM) 0.977 ± 0.022; (concentration: 6mM) 0.987 ± 0.04. Further, the NP40-soluble protein abundance is, setting by setting: (concentration: 8mM) 0.988 ± 0.02; (concentration: 10mM) 0.938 ± 0.014.

Turning to UniProt Q9Y3R5 and related entries, the NP40-soluble protein abundance is, setting by setting: (concentration: 0.1mM) 1.11 ± 0.17; (concentration: 0.5mM) 1.07 ± 0.11; (concentration: 1mM) 1.1 ± 0.11; (concentration: 2mM) 1.14 ± 0.17; (concentration: 4mM) 1.13 ± 0.19; (concentration: 6mM) 1.08 ± 0.087. The NP40-soluble protein abundance is, setting by setting: (concentration: 8mM) 1.07 ± 0.07; (concentration: 10mM) 0.972 ± 0.083.

STUB1 (UniProt Q9UNE7): the NP40-soluble protein abundance (concentration: 0.1mM) was 0.948 ± 0.056; the NP40-soluble protein abundance (concentration: 0.5mM) came out at 0.8985 ± 0.0031; the NP40-soluble protein abundance (concentration: 1mM) turned out to be 1.02 ± 0.1; the NP40-soluble protein abundance (concentration: 2mM) was 1.03 ± 0.027; the NP40-soluble protein abundance (concentration: 4mM) was found to be 1.01 ± 0.078; the NP40-soluble protein abundance (concentration: 6mM) was 1.01 ± 0.012. Besides, the NP40-soluble protein abundance by setting is: (concentration: 8mM) 1.01 ± 0.049; (concentration: 10mM) 1.03 ± 0.081.

With UniProt Q9UNQ2, the NP40-soluble protein abundance is 1.11 ± 0.093 (concentration: 0.1mM); 1.13 ± 0.12 (concentration: 0.5mM); 1.05 ± 0.16 (concentration: 1mM); 1.22 ± 0.26 (concentration: 2mM); 1.33 ± 0.3 (concentration: 4mM); 1.31 ± 0.3 (concentration: 6mM). Also, the NP40-soluble protein abundance is 1.31 ± 0.26 (concentration: 8mM) and 1.44 ± 0.31 (concentration: 10mM).

These data come from the supplement of paper PMC6411743.
